{"source": "patent US9073989B2", "about": "“Antibiotic comprising an antibody mimetic, its preparation methods and uses thereof” (PROTEIN DESIGN LAB, LTD, priority 2011, dated 2015)", "system": "Mycobacterium tuberculosis (the standard strains H37RV)", "assay": "In vivo protection of mice infected by Mycobacterium tuberculosis", "parameters": "species or system BalB/c mice", "conditions": "for observation of the mice's lung (TB nodules, necrosis): 5 weeks intraperitoneal 6 times per week, rifampin 20 μg/g, PMC-AM1 low dose (10 μg/g), FIG. 10", "note": "For at least one compound, name, drawing or mass did not settle the structure.", "data": [{"smiles": "CO[C@H]1/C=C/O[C@@]2(C)Oc3c(C)c(O)c4c(O)c(c(/C=N/N5CCN(C)CC5)c(O)c4c3C2=O)NC(=O)/C(C)=C\\C=C\\[C@H](C)[C@H](O)[C@@H](C)[C@@H](O)[C@@H](C)[C@H](OC(C)=O)[C@@H]1C", "note": "[rifampicin, reference compound]", "values": [{"measurement": "observation of the mice's lung (TB nodules, necrosis)", "result": "one of which can be seen tissue necrosis"}, {"measurement": "observation of the mice's lung (TB nodules, necrosis)", "setting": "listed as rifampin", "result": "no TB nodules as appeared in control mice's lung's on the whole, but there was necrosis"}, {"measurement": "lung by microscope (pathological section)", "setting": "5 weeks treatment, magnification 200, FIG. 11", "result": "intact basically, but had a mass of cellular infiltration in parts"}, {"measurement": "weight of mice during experiment", "setting": "during 5 weeks treatment", "result": "rise"}]}]}
